Data: patent publication US7326707B2, “Bicyclic melanocortin-specific compounds” (Palatin Technologies Incorporated, priority 2001, dated 2008)
At least one compound was matched to its structure with a doubt left.

By UniProt entry, the sequences of proteins in these tests, tags left out. Where a name states a change or a piece, a line headed by the entry shows the natural chain unless it says otherwise.
UniProt P32245, whole entry: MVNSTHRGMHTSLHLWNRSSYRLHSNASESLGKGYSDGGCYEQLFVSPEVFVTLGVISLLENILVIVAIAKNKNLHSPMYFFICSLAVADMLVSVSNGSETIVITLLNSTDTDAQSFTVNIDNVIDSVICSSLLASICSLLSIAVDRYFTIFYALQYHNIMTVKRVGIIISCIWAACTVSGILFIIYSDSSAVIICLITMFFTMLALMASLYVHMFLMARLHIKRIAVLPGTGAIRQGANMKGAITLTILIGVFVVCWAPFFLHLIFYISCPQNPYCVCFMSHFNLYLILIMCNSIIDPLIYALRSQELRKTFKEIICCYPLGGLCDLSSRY
UniProt Q01727: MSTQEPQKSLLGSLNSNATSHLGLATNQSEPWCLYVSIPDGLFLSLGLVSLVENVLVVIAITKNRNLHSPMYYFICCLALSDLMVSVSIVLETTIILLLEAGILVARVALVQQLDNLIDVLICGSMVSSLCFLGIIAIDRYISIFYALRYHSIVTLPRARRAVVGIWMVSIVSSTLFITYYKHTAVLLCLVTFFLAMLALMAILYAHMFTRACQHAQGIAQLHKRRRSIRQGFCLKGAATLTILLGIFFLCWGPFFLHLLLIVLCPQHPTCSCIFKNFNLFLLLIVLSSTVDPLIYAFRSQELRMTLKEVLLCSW
UniProt P33032: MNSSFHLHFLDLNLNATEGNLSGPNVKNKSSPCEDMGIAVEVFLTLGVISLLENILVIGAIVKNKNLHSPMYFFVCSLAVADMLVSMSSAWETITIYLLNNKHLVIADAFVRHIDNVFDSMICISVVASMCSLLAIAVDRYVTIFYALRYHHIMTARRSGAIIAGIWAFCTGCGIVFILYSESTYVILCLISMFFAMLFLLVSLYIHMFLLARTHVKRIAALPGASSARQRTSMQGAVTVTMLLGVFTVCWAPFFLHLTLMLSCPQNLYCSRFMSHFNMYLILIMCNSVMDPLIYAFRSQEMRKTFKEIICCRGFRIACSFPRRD

Legend:
Type in all cases: cell-based
Conditions in all cases: cAMP assay as in Example 5
[1] = target: T1, MC4-R (HEK-293 cells expressing MC4-R) (Homo sapiens, UniProt P32245); assay: cAMP assay for agonist/antagonist status, MC4-R
T1 construct: expressed in transfected cells; host or cells: HEK-293
Experimental: (§1) The Ki (nM) of certain compounds of the invention were determined. Functional evaluation of compounds at melanocortin receptors was performed by measuring the accumulation of intracellular cAMP in HEK-293 cells expressing MC3-R, MC4-R or MC5-R, and in B-16 mouse melanoma cells (containing MC1-R). Cells, suspended in Earle's Balanced Salt Solution containing 10 mM HEPES, pH 7.5, 5 mM MgCl2, 1 mM glutamine, 0.1% albumin and 0.6 mM 3-isobutyl-1-methyl-xanthine, a phosphodiesterase inhibitor, were plated in 96 well plates at a density of 0.5×10^5 cells per well. Cells were incubated with the test compounds in the presence or absence of α-MSH for 1 hour at 37° C. cAMP levels were measured by EIA (Amersham) in the cell lysates. Data analysis and EC50 values were determined using nonlinear regression analysis with Prism Graph-Pad software.
(§2) The agonist/antagonist status with respect to MC1-R, MC4-R and MC5-R of certain compounds of the invention was determined. Antagonistic activity was determined by measuring the inhibition of α-MSH-induced cAMP levels following exposure to the compounds as in Example 4.

[2] = target: T2, MC1-R (B-16 mouse melanoma cells) (Mus musculus, UniProt Q01727); assay: cAMP assay for agonist/antagonist status, MC1-R
T2 construct: B-16 mouse melanoma cells (containing MC1-R); endogenous in cells; host or cells: B-16 mouse melanoma cells
Experimental: as §1, §2

[3] = target: T3, MC5-R (HEK-293 cells expressing MC5-R) (Homo sapiens, UniProt P33032); assay: cAMP assay for agonist/antagonist status, MC5-R
T3 construct: expressed in transfected cells; host or cells: HEK-293
Experimental: as §1, §2

Structure (SMILES) | agonist/antagonist status as to MC4-R [1] | agonist/antagonist status as to MC1-R [2] | agonist/antagonist status as to MC5-R [3]
NCCCCC1C(=O)N2C(COc3ccc4ccccc4c3)CCC2N1C(=O)C(Cc1ccc(Cl)cc1)NC(=O)C1Cc2ccccc2CN1 (stereo not drawn) [Example 11] | agonist | – | –
N=C(N)NCCCC1C(=O)N2C(COc3ccc4ccccc4c3)CCC2N1C(=O)C(Cc1ccccc1Cl)NC(=O)C1Cc2ccccc2CN1 (stereo not drawn) [Example 29] | agonist | agonist | –
N=C(N)NCCCC1C(=O)N2C(COc3ccc4ccccc4c3)CCC2N1C(=O)C(Cc1ccc(Cl)cc1Cl)NC(=O)C1CCC(c2ccccc2)N1 (stereo not drawn) [Example 46] | antagonist | agonist | agonist
N=C(N)NCCCC1C(=O)N2C(COc3ccc4ccccc4c3)CCC2N1C(=O)C(Cc1ccccc1Cl)NC(=O)C(N)COCc1ccccc1 (stereo not drawn) [Example 30] | agonist | agonist | –
CCCCCCC(=O)NC(COCc1ccccc1)C(=O)NC(Cc1ccc(Cl)cc1)C(=O)N1C(CCCCN)C(=O)N2C(COc3ccc4ccccc4c3)CCC21 (stereo not drawn) [Example 12] | antagonist | – | –
